Article PMC12541808

What was measured:
[1] = molecular target: T1, propionyl-CoA carboxylase subunit alpha (PCCA) (UniProt A0A8I3S647); assay: pull-down (streptavidin beads, western blot); details: 50 nM aptamer, WT lysate, bound equally well as from K-RasV12 lysate; tryptamino-dU (trp-dU) replaces dT in the extended part (after the 20-nt forward primer); primer has normal dT; Pull-down: 100 uL MDCK lysate, 50 nM renatured 5'-biotinylated aptamer, 0.75% dextran sulfate, 4 uM competitor in 200 uL PBSMN buffer, 10 min at 25 C; protein in an extract; label: 5' biotin; synthetic backbone; letters put together from the description
[2] = molecular target: T1, propionyl-CoA carboxylase subunit alpha (PCCA); assay: pull-down (streptavidin beads, LC-MS and western blot); details: 50 nM aptamer, 0.75% dextran sulfate, 4 uM competitor, K-RasV12 lysate, tryptamino-dU (trp-dU) replaces dT in the extended part (after the 20-nt forward primer), primer has normal dT, Pull-down: 100 uL MDCK lysate, 50 nM renatured 5'-biotinylated aptamer, 4 uM competitor in 200 uL PBSMN buffer, 10 min at 25 C, protein in an extract, label: 5' biotin, synthetic backbone, letters put together from the description

## GGGAGATCACTTACGGCACCGCGGCTCGTGGGTCTACGTGGCCGAGAGGACGAGGGGGCTGCCCCAAGGCACGGGTCAG [ABN-01]
[1]
  binding result: binds
[2]
  binding result: binds

Construct, isoform or probe ends are uncertain for at least one entry. At least one result comes from cells or an extract, where the contact may be indirect.
